From ChEMBL document CHEMBL3988442, “University of Dundee, Small-Polar-MMV Screening Library” (2021).

Protein sequences, listed by entry. Tags and fused reporters are not part of them.
UniProt P9WNZ1, whole entry: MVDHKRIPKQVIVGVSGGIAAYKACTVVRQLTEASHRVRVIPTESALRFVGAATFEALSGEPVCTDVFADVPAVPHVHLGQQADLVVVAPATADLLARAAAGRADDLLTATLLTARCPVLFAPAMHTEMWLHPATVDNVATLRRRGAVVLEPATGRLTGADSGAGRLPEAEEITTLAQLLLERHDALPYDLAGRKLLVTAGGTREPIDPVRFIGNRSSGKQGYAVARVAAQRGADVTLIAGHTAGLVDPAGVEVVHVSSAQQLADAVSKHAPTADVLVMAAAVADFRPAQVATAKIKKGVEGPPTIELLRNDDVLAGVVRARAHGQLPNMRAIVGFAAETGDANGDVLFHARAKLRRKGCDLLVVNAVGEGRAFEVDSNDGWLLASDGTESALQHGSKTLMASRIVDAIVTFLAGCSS

Leishmania in macrophages: 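Cell assay of Leishmania donovani living inside macrophages; the read-out is not stated. Tested at 30 µM. Direction is inferred from retests: higher values go with stronger inhibition. About 69,000 compounds were tested under these conditions; 1.5% (about 1,000) showed 50% or more at least once.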
CoaBC: 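Enzyme assay of CoaBC with a phosphate dye (Biomol Green) read at 650 nm. Target: Coenzyme A biosynthesis protein CoaBC, Mycobacterium tuberculosis (UniProt P9WNZ1). Concentration: 30 µM. Higher reads as stronger inhibition, judged from the few compounds that gave an IC50. Most strong results did not repeat in a second test. Of about 67,000 compounds tested this way, about 40 (0.06%) reached 50% or more in at least one test.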

Each number is a percent effect as filed.
The record does not define 0% and 100%; most values in the screen are far below 50% and negative numbers occur (in some assays of this library far below -100).
The compounds are a random part of those screened.
Two or more numbers in one place are separate tests of the same structure; such repeats can differ widely.

Result for CN(C)C(=O)COCc1nn(C)c2c1CCN(Cc1ccco1)C2 was CoaBC: -8.411%.
Result for COc1ccc(CNc2cccnc2-n2cccn2)cc1OC was Leishmania in macrophages: 22.07%; CoaBC: -4.592%.
Result for CC1CCN(Cc2ccccc2CNC(=O)C2CNC(=O)N2)CC1 (stereo not shown) was Leishmania in macrophages: 13.97%; CoaBC: 0.3822%.
Result for Cc1cc(CC(C)Nc2nc(C3CCCC3)nc3c2cnn3C)[nH]n1 (stereo not shown) was Leishmania in macrophages: 8.285%; CoaBC: 0.6479%.
Result for c1ccc2oc(N3CCCC3Cn3cncn3)nc2c1 (stereo not shown) was Leishmania in macrophages: 26.69%; CoaBC: 0.4386%.
Result for O=C(c1cnccn1)N1C[C@@H]2CC[C@H](C1)N(S(=O)(=O)c1cccnc1)C2 was CoaBC: 16.5%.
Result for CCc1nnc2n1CCN(C(C(=O)NC1CC1)c1ccc(F)cc1)C2 (stereo not shown) was Leishmania in macrophages: 16.2%; CoaBC: -18.49%.
Result for Cc1ncnc2c1CCN(C(=O)c1ccnnc1)CC2 was Leishmania in macrophages: 8.403%; CoaBC: 10.81%.
Result for O=C(NCCN1CCOCC1)Nc1cc(F)ccc1-n1cccn1 was Leishmania in macrophages: 7.22%; CoaBC: -1.446%.
Result for CS(=O)(=O)c1cn[nH]c1C1CCCN(C(=O)Cn2cccn2)C1 (stereo not shown) was Leishmania in macrophages: -4.843%; CoaBC: 1.607%.
Result for CN(C)S(=O)(=O)N1CCC2(COCc3cnc(-c4cccnc4)nc32)C1 (stereo not shown) was Leishmania in macrophages: 1.66%; CoaBC: 2.963%.
Result for N#Cc1ccc(N2CCCC2Cn2cncn2)nc1 (stereo not shown) was Leishmania in macrophages: 29.33%; CoaBC: -0.2169%.
Result for Cn1c(=O)ccn(CC(=O)Nc2cccnc2)c1=O was Leishmania in macrophages: -10.49%; CoaBC: 3.733%.
Result for O=C(NCC1CC1)[C@H]1CC[C@@H]2[C@@H](CCN2Cc2ccoc2)O1 was CoaBC: 9.251%.
Result for Cc1cccc(O[C@H]2COCCN(Cc3sc(C)nc3C)C2)n1 was Leishmania in macrophages: -4.891%; CoaBC: -1.935%.
Result for O=C(NCC1CC1)C1CCC2(CCN(C(=O)c3cccs3)CC2)O1 (stereo not shown) was Leishmania in macrophages: 1.775%; CoaBC: -6.588%.
Result for O=C(O)C(F)(F)F.[H][C@]12CC[C@@]3(N=C(C)N(CCOC)C3=O)[C@@]1([H])CN(Cc1ccccc1F)C2 was Leishmania in macrophages: -4.427%.
Result for CC1CN(C)c2ccccc2CN1C(=O)c1ccc[nH]1 (stereo not shown) was Leishmania in macrophages: 18.04%; CoaBC: -5.33%.
Result for COCC(NC(=O)c1cnn(C)c1)c1cccc(C(F)(F)F)c1 (stereo not shown) was Leishmania in macrophages: 8.484%; CoaBC: 1.066%.
Result for O=C(NCCNc1ncccn1)C1CC(=O)N(Cc2ccccn2)C1 (stereo not shown) was Leishmania in macrophages: 4.276%; CoaBC: 5.471%.
Result for F[C@@H]1CN(C2CCC2)C[C@@H]1OCc1nc2ncccc2[nH]1 was Leishmania in macrophages: 1.769%; CoaBC: -1.987%.
Result for Cc1ccc(-n2c(O)cc(C)c(C#N)c2=O)c(C)c1 was Leishmania in macrophages: -1.561%; CoaBC: 20.69% and 7.407%.
Result for CN(C)C(=O)Cn1cc(C(=O)NCCc2ccc(Cl)cc2Cl)nn1 was Leishmania in macrophages: 24.14%; CoaBC: 5.202%.
Result for O=C(O)C(F)(F)F.O=C(O)C(F)(F)F.O=C(O)C(F)(F)F.[H][C@@]12CN(Cc3ccc(OC)cc3)C[C@]1([H])OCCN2CCN(C)C was Leishmania in macrophages: 30.65%.
Result for CN(C)CCOCC1CN(Cc2ccsc2)Cc2nnn(C)c21 (stereo not shown) was CoaBC: -4.938%.
Result for Cc1nnnn1CCC(=O)N1CCC2(CCC(=O)N(CC3CC3)C2)CC1 was Leishmania in macrophages: 24.23%; CoaBC: 0.3367%.
Result for Cc1noc(C)c1S(=O)(=O)N1CCC(n2cccn2)CC1 was Leishmania in macrophages: -6.381%; CoaBC: 3.439%.
Result for c1ccc(CN2CC[C@@H]3[C@@H](CO[C@@H]3CNc3ncccn3)C2)nc1 was CoaBC: 2.096%.
Result for CC(C)OCCN1CCN(c2ccc(CN(C)C)cn2)CC1 was Leishmania in macrophages: -1.145%; CoaBC: 3.422%.

For reference, 2 entries once more:

SMILES	Leishmania in macrophages	CoaBC
CC1CN(C)c2ccccc2CN1C(=O)c1ccc[nH]1 (stereo not shown)	18.04%	-5.33%
O=C(NCC1CC1)C1CCC2(CCN(C(=O)c3cccs3)CC2)O1 (stereo not shown)	1.775%	-6.588%